# Test results from PubChem BioAssay AID540303 (National Center for Advancing Translational Sciences (NCATS), 2011).
# Among all 330,000 compounds or so, about 1,000 (0.3%) were called active. This list was built around the results that the source calls inconclusive (neither active nor inactive); the mix of calls is not that of the screen. Calls follow the shape of the dose curve; as a rule, active = well fitted inhibition curve with a large enough effect; inconclusive = small, poorly fitted or top-dose-only effect; inactive = no such curve, though single readings can be large or run the other way; tested in mouse RAW 264.7 cells. A potency beside an inconclusive call is a rough fit, not a confirmed value.
# Assay: qHTS for Inhibitors of Cell Surface uPA Generation; also: nearly all actives have a fitted effect of over 55% in size
# Conditions: cell surface uPA generation assay; series mostly up to 38.3 µM; activity change, negative = inhibition: at the top concentration
# Method in brief: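 Validation set in qHTS format. RAW 264.7 cells were pre-plated overnight and then exposed to compounds (up to 38.3 uM final) for 24 h at 37 C in 5% CO2, followed by a luminescent ATP-Lite measurement.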
# % is scaled to controls: 0 for no effect and ±100 for the full control effect; potency is read from the fitted curve at half-maximal effect.
SMILES,Potency,"activity change, negative = inhibition"
CCn1c(Cn2nnc(-c3ccccc3)n2)nnc1SCC(=O)Nc1cccc(C)c1C,"inconclusive: 1 µM [inhibitor, full curve, poor fit]",
O=C(Cn1c(=O)oc2ccccc21)Nc1n[nH]c(=S)s1,,inactive: -12.7%
CCOc1ccc(S(=O)(=O)Nc2cccc(C(=O)N(C)Cc3cccc(OC)c3OC)c2)cc1,"inconclusive: 3.16 µM [inhibitor, partial curve, poor fit]",
CCOC(=O)C(C)N1C(=O)S/C(=C\c2ccc(-c3ccccc3C(=O)O)o2)C1=O (stereo unspecified),,inactive: 3.31%
COc1ccc(N=C2NC(=O)C(CO)(CO)S2)cc1,"inconclusive: 31.6 µM [inhibitor, single point]",
Cc1occc1C(=O)Nc1cccc([N+](=O)[O-])c1C,"inconclusive: 0.794 µM [inhibitor, partial curve, poor fit]",
COc1cccc2sc(Nc3nnc(-c4ccc(F)cc4)o3)nc12,active: 5.62 µM,
CNC(=O)COC(=O)c1ccccc1C(=O)c1ccc(Cl)c([N+](=O)[O-])c1,"inconclusive: 5.01 µM [inhibitor, partial curve, poor fit]",
Cn1nnnc1NCc1ccccc1F,,inactive: 0.869%
COc1cc([N+](=O)[O-])ccc1NC(=S)Nc1cc(C(=O)OC(C)C)cc(C(=O)OC(C)C)c1,,inactive: 0.761%
O=C1NC(=Nc2ccccc2Cl)S/C1=C\c1cc([N+](=O)[O-])ccc1O,"inconclusive: 31.6 µM [inhibitor, single point]",
O=C(O)Cn1c(-c2ccccn2)nc2ccccc21,"inconclusive: 28.2 µM [inhibitor, single point]",
CSc1nsc(NC(=O)Nc2ccccc2)n1,"inconclusive: 10 µM [inhibitor, single point]",
COc1ccc(-c2noc(CCC(=O)NCCCN3CCN(c4ccccc4F)CC3)n2)cc1,"inconclusive: 12.6 µM [inhibitor, single point]",
COc1cccc(NC(=S)N2CCCN(Cc3ccc(F)cc3)C2)c1,,inactive: 4.8%
CCC(=O)Nc1ccc(NC(=O)c2ccco2)cc1,"inconclusive: 2 µM [inhibitor, partial curve, poor fit]",
O=Cc1ccc2noc(-c3ccc(F)cc3)c2c1,,inactive: -3.52%
COC(=O)CN1C(=O)c2cccc3cccc1c23,,inactive: 0.263%
CSc1cccc(NS(=O)(=O)c2cn(C)cn2)c1,,inactive: -10.1%
O=C(N/N=C/c1c[nH]c2ccccc12)C1CC(=O)N(c2ccccc2)C1 (stereo unspecified),"inconclusive: 11.2 µM [inhibitor, partial curve, poor fit]",
Cc1nc(Cc2nnc(SCC(=O)N3CCN(c4ccc(O)cc4)CC3)o2)cs1,"inconclusive: 6.31 µM [inhibitor, partial curve, poor fit]",
CCC1CCCCN1CCCNC(=O)c1ccc2nc(N3CCCCC3)sc2c1 (stereo unspecified),"inconclusive: 8.91 µM [inhibitor, partial curve, poor fit]",
COC(=O)N/N=C\c1c(C)nn(-c2ccccc2)c1Cl,,inactive: -14.6%
O=C(Nc1ccccc1Cc1ccccc1)c1ccccc1NS(=O)(=O)c1ccc(Cl)s1,"inconclusive: 28.2 µM [inhibitor, single point]",

SMILES,Potency,"activity change, negative = inhibition"
Cn1nnnc1Sc1ncnc2scc(-c3ccccc3Br)c12,"inconclusive: 10 µM [inhibitor, partial curve, poor fit]",
CCc1ccc(NC(=O)Nc2cnccn2)cc1,"inconclusive: 10 µM [inhibitor, partial curve, poor fit]",
CC(C)OCCCNC(=O)C1CC(=O)N(CCc2ccc(F)cc2)C1 (stereo unspecified),,inactive: 2.21%
CC(=O)Nc1sc(C)c(C)c1C(=O)OCC(=O)Nc1ccccc1,"inconclusive: 3.16 µM [inhibitor, partial curve, poor fit]",
CCN(CC)C(=O)CC(c1ccc2c(c1)OCO2)c1c(OC)cc(OC)c2c(-c3ccccc3)cc(=O)oc12 (stereo unspecified),"inconclusive: 10 µM [inhibitor, single point]",
O=[N+]([O-])c1cc(C(F)(F)F)cc([N+](=O)[O-])c1NCCNC(=S)Nc1cccc(F)c1,"inconclusive: 28.2 µM [inhibitor, single point]",
CCCCCCCCCCCCCCCC[n+]1cccc(C(=O)N(CC)CC)c1,"inconclusive: 2.82 µM [inhibitor, partial curve, poor fit]",
COc1ccc(-c2noc(CSc3nc(N)c(-c4ccccc4)c(=O)[nH]3)n2)cc1,,inactive: -37.3%
COc1cc(NC(=O)N2CCNC2=O)cc(C(=O)Nc2cccc(C(F)(F)F)c2)c1,"inconclusive: 2.82 µM [inhibitor, full curve, poor fit]",
C=CCOc1cccc(C(=O)/C=C2/C(=O)Nc3ccccc32)c1,"inconclusive: 12.6 µM [inhibitor, single point]",
CCOc1ccc(-n2nc3ccc(N)cc3n2)cc1,active: 10 µM,
CCCOC(=O)c1cccc(NC(=O)C(C)(C)C)c1,,inactive: -2.65%
COc1cccc(-c2nnc(SCc3cccnc3)o2)c1,,inactive: -0.027%
CCC(=O)Nc1cc2nn(-c3ccc(OC)cc3)nc2cc1C,"inconclusive: 0.794 µM [inhibitor, full curve, poor fit]",
CC(C)=CC(O)C/C(C)=C/COc1ccc2ccc(=O)oc2c1 (stereo unspecified),"inconclusive: 2.82 µM [inhibitor, partial curve, poor fit]",
CC1CCc2c(sc(NC(=O)CSc3ncn[nH]3)c2C#N)C1 (stereo unspecified),"inconclusive: 31.6 µM [inhibitor, partial curve, poor fit]",
Cc1ccc(NCc2n[nH]c(=S)n2-c2ccccc2)c(C)c1,"inconclusive: 0.355 µM [inhibitor, full curve, poor fit]",
COc1ccc(NS(=O)(=O)c2cc3c(cc2C)N(C(C)=O)CCO3)cc1,"inconclusive: 4.47 µM [inhibitor, partial curve, poor fit]",
O=C(c1cccc(Br)c1)N1CCCc2ccccc21,"inconclusive: 12.6 µM [inhibitor, partial curve, poor fit]",
COc1ccc(-n2cnc(N)c2C(=O)c2cccc([N+](=O)[O-])c2)cc1,"inconclusive: 12.6 µM [inhibitor, single point]",
Cc1ccc(SCC(=O)NCCN2C(=O)CSC2=O)cc1C,,inactive: -2.66%
COC(=O)c1ccc(C2=NOC(C)(c3sc(-c4ccccc4)nc3C)C2)cc1 (stereo unspecified),,inactive: 14.5%
O=C(Oc1ccc(C(=S)N2CCOCC2)cc1)c1cccc([N+](=O)[O-])c1,,inactive: 4.18%
COc1ccc(C2CC(c3ccccc3O)=NN2c2ccccc2)cc1 (stereo unspecified),,inactive: 0.93%

# Arranged by heavy-atom count (high to low): twelve of the compounds above
SMILES,Potency,"activity change, negative = inhibition"
CCN(CC)C(=O)CC(c1ccc2c(c1)OCO2)c1c(OC)cc(OC)c2c(-c3ccccc3)cc(=O)oc12 (stereo unspecified),"inconclusive: 10 µM [inhibitor, single point]",
O=[N+]([O-])c1cc(C(F)(F)F)cc([N+](=O)[O-])c1NCCNC(=S)Nc1cccc(F)c1,"inconclusive: 28.2 µM [inhibitor, single point]",
COc1ccc(-c2noc(CSc3nc(N)c(-c4ccccc4)c(=O)[nH]3)n2)cc1,,inactive: -37.3%
COC(=O)c1ccc(C2=NOC(C)(c3sc(-c4ccccc4)nc3C)C2)cc1 (stereo unspecified),,inactive: 14.5%
COc1ccc(C2CC(c3ccccc3O)=NN2c2ccccc2)cc1 (stereo unspecified),,inactive: 0.93%
COc1ccc(-n2cnc(N)c2C(=O)c2cccc([N+](=O)[O-])c2)cc1,"inconclusive: 12.6 µM [inhibitor, single point]",
CC(=O)Nc1sc(C)c(C)c1C(=O)OCC(=O)Nc1ccccc1,"inconclusive: 3.16 µM [inhibitor, partial curve, poor fit]",
Cn1nnnc1Sc1ncnc2scc(-c3ccccc3Br)c12,"inconclusive: 10 µM [inhibitor, partial curve, poor fit]",
Cc1ccc(SCC(=O)NCCN2C(=O)CSC2=O)cc1C,,inactive: -2.66%
COc1cccc(-c2nnc(SCc3cccnc3)o2)c1,,inactive: -0.027%
CCOc1ccc(-n2nc3ccc(N)cc3n2)cc1,active: 10 µM,
CCc1ccc(NC(=O)Nc2cnccn2)cc1,"inconclusive: 10 µM [inhibitor, partial curve, poor fit]",

# Fetched by compound from the list above, two records:
SMILES,Potency,"activity change, negative = inhibition"
CCOc1ccc(-n2nc3ccc(N)cc3n2)cc1,active: 10 µM,
COc1ccc(-c2noc(CSc3nc(N)c(-c4ccccc4)c(=O)[nH]3)n2)cc1,,inactive: -37.3%

# (next part)

SMILES,Potency,"activity change, negative = inhibition"
Cc1ccc(-n2c(C(C)C)nc3oc4ccccc4c(=O)c3c2=O)cc1,"inconclusive: 11.2 µM [inhibitor, single point]",
Oc1ccccc1CNc1nc2ccccc2n1CCN1CCCCC1,,inactive: -10.6%
CN1CCC(=C2c3ccccc3Sc3ccccc32)CC1,"inconclusive: 6.31 µM [inhibitor, partial curve, poor fit]",
COc1ccc(C2=NOC(C(=O)Nc3cc(Br)ccc3O)C2)cc1OC (stereo unspecified),"inconclusive: 2 µM [inhibitor, partial curve, poor fit]",
CC(=O)N1c2ccc(S(=O)(=O)N3CCC(C(=O)Nc4cccc(Cl)c4)CC3)cc2CC1C (stereo unspecified),"inconclusive: 1 µM [inhibitor, partial curve, poor fit]",
COCCOC(=O)c1[nH]c2c(c1C)C(=O)CC(c1ccco1)C2 (stereo unspecified),active: 1 µM,
Nc1c2ccccc2nc2ccccc12,"inconclusive: 0.794 µM [inhibitor, full curve, poor fit]",
Cc1cccc(-n2ncc3c(NC(C)C)ncnc32)c1,"inconclusive: 14.1 µM [inhibitor, partial curve, poor fit]",
O=C(Nc1cccc2cccnc12)c1cccc([N+](=O)[O-])c1,"inconclusive: 2.82 µM [inhibitor, single point]",
c1ccc(C2=Nn3c(nnc3-c3ccncc3)SC2)cc1,,inactive: 21.8%
CC(=O)Nc1cccc(-c2nc3ccc(NC(C)=O)cc3s2)c1,"inconclusive: 7.94 µM [inhibitor, partial curve, poor fit]",
Cc1cc(C(=O)NC(C)C2CC2)c(Cl)cc1Cl (stereo unspecified),"inconclusive: 12.6 µM [inhibitor, partial curve]",
CC(C)c1ccc(-n2c(-c3ccccc3)c[n+]3c2CCc2ccccc2-3)cc1,"inconclusive: 0.891 µM [inhibitor, partial curve, poor fit]",
COc1ccc(OC)c(N(CC(=O)N2CCCC2)S(C)(=O)=O)c1,"inconclusive: 11.2 µM [inhibitor, partial curve, poor fit]",
Cc1ccc(O)c(NC(=O)c2onc(C)c2Cl)c1,"inconclusive: 1 µM [inhibitor, full curve, poor fit]",
OCCC1CN(CCCn2cccn2)CCN1C1CCCCC1 (stereo unspecified),,inactive: -2.05%
COc1ccccc1CC(=O)N1CCN(c2cccc(Cl)c2)CC1,,inactive: -1.13%
COc1ccc(/C=N/NC(=O)c2nc(-c3ccccc3)n(-c3ccccc3)n2)c(O)c1,,inactive: -7.7%
Cc1cc(C)nc(/N=C(\N)Nc2ccc3c(c2)OCCO3)n1,"inconclusive: 12.6 µM [inhibitor, single point]",
Cc1cccc(C(=O)OCC(=O)c2ccc3c(c2)OCO3)c1O,"inconclusive: 10 µM [inhibitor, single point]",
CCCCCCCCSc1n[nH]c(N)n1,"inconclusive: 6.31 µM [inhibitor, partial curve]",
O=c1oc2ccccc2n1CCCOc1ccccc1,,inactive: -7.8%
C=CC(=O)Nc1cccc(Oc2ccnc(Nc3ccc(N4CCN(C)CC4)cc3)n2)c1,"inconclusive: 11.2 µM [inhibitor, partial curve, poor fit]",
